According to PubChem BioAssay AID1487 (National Center for Advancing Translational Sciences (NCATS), 2009):
The list shows a part of the results. Shown are side measurements of this screen, not its main read-out; they come without a call. Most of these compounds were active or inconclusive in the main read-out, so they are no random draw. The note in brackets gives the kind of curve behind each potency; many fits are weak.

Assay: qHTS Assay for Modulators of Lamin A Splicing
Conditions: HeLa LMNA splicing GFP/RFP minigene ratio, 48 h
Procedure, shortened: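 S3 HeLa cells stably expressing lamin A-EGFP splicing minigene plus DsRed2, 600 cells/well, 48 h compound exposure at 37C. Laser-scanning cytometry; analysed as GFP (500-530 nm)/RFP (575-640 nm) total intensity ratio; 0.5% DMSO vehicle.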

[1] = measured here: RFP viability control channel
[2] = measured here: GFP splicing reporter channel

Row | SMILES | AC50 [1] | AC50 [2]
1 | CCc1ccc2nc(N(Cc3cccnc3)C(=O)Cc3ccccc3)sc2c1 | 0.0631 µM [falling, full curve, poor fit] | 
2 | O=[N+]([O-])c1c(NCCCO)cc(Sc2nc3ccccc3s2)c2nonc12 | 11.2 µM [falling, partial curve] | 11.2 µM [falling, partial curve]
3 | Cn1c(CNc2cccc(C(F)(F)F)c2)n[nH]c1=S | 11.2 µM [falling, partial curve, poor fit] | 
4 | O=C(O)c1ccccc1SC1CC(=O)N(c2ccc3c(c2)OCO3)C1=O (stereo not given) | 1.78 µM [rising, partial curve, poor fit] | 
5 | CN(C)C(=O)CSc1nnc(-c2ccncc2)n1Cc1ccco1 |  | 0.158 µM [falling, single point]
6 | COc1ccc2[nH]cc(C(=O)CN3CCCCC3)c2c1 | 3.98 µM [rising, single point] | 5.62 µM [rising, single point]
7 | CCc1ccccc1N1C(=O)N(Cc2cc(=O)n3ccccc3n2)c2ccccc2S1(=O)=O |  | 5.62 µM [falling, single point]
8 | CCOC(=O)C(=Cc1ccc(Br)cc1)C(=O)OCC | 3.55 µM [falling, full curve, poor fit] | 5.62 µM [falling, full curve, poor fit]
9 | Cc1oc2c(cc(NS(=O)(=O)c3cccs3)c3ccccc32)c1C(=O)OC(C)C | 35.5 µM [rising, single point] | 
10 | Cc1nn(C)c(C)c1CN(C)C(=O)c1nn2c(c1Br)NC(c1cccs1)CC2C(F)(F)F (stereo not given) | 15.8 µM [rising, single point] | 12.6 µM [rising, single point]
11 | Nc1nc(Nc2ccc(Cl)cc2Cl)nc(C(F)(F)F)n1 |  | 8.91 µM [falling, single point]
12 | Cc1cc(Cl)ccc1NNC(=O)c1c(C)noc1C | 5.62 µM [rising, partial curve, poor fit] | 6.31 µM [rising, partial curve, poor fit]
13 | Cc1cccc2cc(CN(Cc3ccc(F)cc3)C(=O)N(C)C)c3nnnn3c12 | 14.1 µM [rising, partial curve] | 12.6 µM [rising, partial curve]
14 | CC(=O)n1nc(-c2ccccc2)nc1NCc1ccc(N(C)C)cc1 | 5.62 µM [falling, partial curve] | 5.62 µM [falling, single point]
15 | COc1ccc(CNC(=O)CCn2c(=O)c3cccn3c3ccc(F)cc32)cc1OC |  | 25.1 µM [rising, partial curve, poor fit]
16 | O=C(Cn1ncc(Cl)c(Cl)c1=O)N1CCN(Cc2ccccc2)CC1 | 12.6 µM [rising, single point] | 
17 | CCC1CCCCN1S(=O)(=O)c1ccc(C(=O)Nc2nnc(-c3ccccc3Cl)o2)cc1 (stereo not given) | 2.51 µM [rising, full curve] | 
18 | CCOc1ccc(-c2nnc(SCC(=O)NC3CCCCC3)nc2-c2ccc(OCC)c(OC)c2)cc1OC | 0.398 µM [rising, full curve, poor fit] | 0.398 µM [rising, full curve, poor fit]

2 records drawn at random from the list so far, as already listed:
Row | SMILES | AC50 [1] | AC50 [2]
18 | CCOc1ccc(-c2nnc(SCC(=O)NC3CCCCC3)nc2-c2ccc(OCC)c(OC)c2)cc1OC | 0.398 µM [rising, full curve, poor fit] | 0.398 µM [rising, full curve, poor fit]
8 | CCOC(=O)C(=Cc1ccc(Br)cc1)C(=O)OCC | 3.55 µM [falling, full curve, poor fit] | 5.62 µM [falling, full curve, poor fit]

Remaining list, next part

Row | SMILES | AC50 [1] | AC50 [2]
19 | COc1ccc(CN(CCN(C)C)c2ncccn2)cc1 | 35.5 µM [falling, single point] | 0.000794 µM [falling, full curve, poor fit]
20 | COc1ccc(-c2[nH]ncc2Oc2ccccc2OC)c(O)c1 | 11.2 µM [rising, partial curve] | 12.6 µM [rising, partial curve]
21 | CCn1c(SCc2ccccc2)nnc1-c1cccs1 | 20 µM [rising, single point] | 
22 | CC(C)c1ccc(NC(=O)c2cc(S(=O)(=O)NCCc3ccccc3)ccc2F)cc1 | 8.91 µM [falling, partial curve, poor fit] | 7.94 µM [falling, partial curve, poor fit]
23 | Cn1c2c(c(=O)c3ccccc31)CCC(C)(C)O2 | 0.00501 µM [falling, full curve, poor fit] | 
24 | CCC(=O)c1ccc(OCC(O)Cn2nnc3ccccc32)cc1 (stereo not given) |  | 0.0398 µM [falling, full curve, poor fit]
25 | Oc1ccc(C2CNCc3sccc32)cc1O (stereo not given) | 0.112 µM [falling, full curve, poor fit] | 
26 | COC(=O)c1c(NC(C)=O)csc1C |  | 3.16 µM [rising, single point]
27 | Cc1cc(C(=O)OCC(=O)NCCC(C)C)c2ccccc2n1 | 0.00398 µM [falling, full curve, poor fit] | 0.00447 µM [falling, full curve, poor fit]
28 | CCOc1ncccc1C(=O)NCCN1C(=O)S/C(=C/c2cccs2)C1=O | 4.47 µM [rising, partial curve] | 
29 | Cc1nc(N2CCN(Cc3nc4ccccc4[nH]3)CC2)c2oc3ccccc3c2n1 | 12.6 µM [rising, partial curve] | 
30 | O=C(NCCCn1ccnc1)c1cc2ccccc2oc1=O | 0.112 µM [rising, full curve, poor fit] | 
31 | COc1ccc(N(CC(=O)Nc2cc(Cl)ccc2OC)S(=O)(=O)c2c(C)noc2C)cc1 | 35.5 µM [rising, single point] | 
32 | C=CCNC(=S)N/N=C/c1ccc(C)c([N+](=O)[O-])c1 | 22.4 µM [rising, single point] | 22.4 µM [rising, single point]
33 | Cc1c(N=Cc2cc(Br)cc(Br)c2O)cccc1C(=O)O | 25.1 µM [rising, single point] | 31.6 µM [rising, single point]
34 | CN1CCC/C1=C/C=C1\SC(=S)NC1=O | 11.2 µM [falling, partial curve] | 17.8 µM [falling, partial curve]
35 | CCOc1ccc(/C=N/n2c(SC)nnc(C(C)(C)C)c2=O)cc1 |  | 3.55 µM [rising, single point]
